Test [1] addresses HSV-1 immediate early protein ICP27, expressed from wild-type HSV-1 in infected cells (herpes simplex virus-1 (KOS)) (UniProt P10238). In words: affinity purification with mass spectrometry; ICP27 immunoprecipitated from lysates of WT HSV-1-infected HeLa cells; control: cells infected with the ICP27 null mutant 27LacZ; lysates treated with RNase A/T1 before IP.
The target of test [2] is Flag-tagged wild-type ICP27 (herpes simplex virus-1) (UniProt P10238). In words: co-IP + affinity purification with mass spectrometry; ICP27 immunoprecipitated after transient transfection in 293T cells (no other viral proteins); IP samples analysed by mass spectrometry and western blotting.

Amino acid sequences for entries named in this document (tags omitted).
UniProt P10238: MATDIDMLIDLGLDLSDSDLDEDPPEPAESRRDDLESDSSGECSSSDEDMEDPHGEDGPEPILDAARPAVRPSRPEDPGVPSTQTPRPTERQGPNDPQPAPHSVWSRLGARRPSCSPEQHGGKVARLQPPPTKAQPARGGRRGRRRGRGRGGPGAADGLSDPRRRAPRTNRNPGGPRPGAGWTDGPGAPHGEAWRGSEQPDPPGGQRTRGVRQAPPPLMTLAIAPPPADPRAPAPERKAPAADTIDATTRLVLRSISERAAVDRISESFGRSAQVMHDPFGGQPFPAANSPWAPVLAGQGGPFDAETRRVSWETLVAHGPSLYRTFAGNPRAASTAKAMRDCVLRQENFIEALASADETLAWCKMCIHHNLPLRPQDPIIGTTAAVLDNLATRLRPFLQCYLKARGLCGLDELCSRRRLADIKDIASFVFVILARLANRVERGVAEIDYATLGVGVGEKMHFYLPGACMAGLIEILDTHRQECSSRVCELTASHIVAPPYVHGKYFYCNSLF
UniProt O95639: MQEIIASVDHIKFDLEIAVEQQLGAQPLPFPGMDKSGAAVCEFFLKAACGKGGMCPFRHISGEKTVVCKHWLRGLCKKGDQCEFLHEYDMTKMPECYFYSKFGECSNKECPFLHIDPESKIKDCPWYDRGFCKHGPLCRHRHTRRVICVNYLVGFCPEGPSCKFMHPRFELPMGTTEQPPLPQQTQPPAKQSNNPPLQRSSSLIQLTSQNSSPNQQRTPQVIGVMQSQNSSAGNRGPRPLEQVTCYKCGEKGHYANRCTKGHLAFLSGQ
UniProt P11940: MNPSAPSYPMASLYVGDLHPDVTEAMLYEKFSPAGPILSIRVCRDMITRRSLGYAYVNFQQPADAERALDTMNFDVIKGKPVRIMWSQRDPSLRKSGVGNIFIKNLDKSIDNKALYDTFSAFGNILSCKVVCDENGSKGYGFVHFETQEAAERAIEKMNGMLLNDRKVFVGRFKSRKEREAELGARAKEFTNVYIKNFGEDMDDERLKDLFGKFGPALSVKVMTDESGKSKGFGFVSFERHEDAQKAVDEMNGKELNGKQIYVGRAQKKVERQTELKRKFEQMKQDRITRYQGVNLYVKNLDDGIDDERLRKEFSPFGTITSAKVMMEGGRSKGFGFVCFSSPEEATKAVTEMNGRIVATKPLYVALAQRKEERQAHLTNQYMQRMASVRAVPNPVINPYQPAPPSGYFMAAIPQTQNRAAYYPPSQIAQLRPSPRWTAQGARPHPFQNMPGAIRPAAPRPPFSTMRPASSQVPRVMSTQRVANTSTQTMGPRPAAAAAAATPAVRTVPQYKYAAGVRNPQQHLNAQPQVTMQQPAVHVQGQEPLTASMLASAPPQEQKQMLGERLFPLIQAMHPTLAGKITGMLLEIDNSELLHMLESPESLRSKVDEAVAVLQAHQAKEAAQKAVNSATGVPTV

No constants are given. Whether binding was seen depends on the method and setting. Binding seen in cells or lysates may run through a third protein. A yes stands for co-enrichment or nearness to the bait. Other partners may have been found. For part of these data: A no says only that the protein was not detected with the bait.

On to “CPSF30, endogenous (from UniProt O95639 1-269)”, for which the binding result in test [1] is reported as “binds”. The same measure, in the same setting: the result for “PABP1, endogenous (from UniProt P11940 1-636)” reads “binds”.

B1: CPSF73, endogenous (protein, UniProt Q9UKF6 1-684)
chain: MSAIPAEESDQLLIRPLGAGQEVGRSCIILEFKGRKIMLDCGIHPGLEGMDALPYIDLIDPAEIDLLLISHFHLDHCGALPWFLQKTSFKGRTFMTHATKAIYRWLLSDYVKVSNISADDMLYTETDLEESMDKIETINFHEVKEVAGIKFWCYHAGHVLGAAMFMIEIAGVKLLYTGDFSRQEDRHLMAAEIPNIKPDILIIESTYGTHIHEKREEREARFCNTVHDIVNRGGRGLIPVFALGRAQELLLILDEYWQNHPELHDIPIYYASSLAKKCMAVYQTYVNAMNDKIRKQININNPFVFKHISNLKSMDHFDDIGPSVVMASPGMMQSGLSRELFESWCTDKRNGVIIAGYCVEGTLAKHIMSEPEEITTMSGQKLPLKMSVDYISFSAHTDYQQTSEFIRALKPPHVILVHGEQNEMARLKAALIREYEDNDEVHIEVHNPRNTEAVTLNFRGEKLAKVMGFLADKKPEQGQRVSGILVKRNFNYHILSPCDLSNYTDLAMSTVKQTQAIPYTGPFNLLCYQLQKLTGDVEELEIQEKPALKVFKNITVIQEPGMVVLEWLANPSNDMYADTVTTVILEVQSNPKIRKGAVQKVSKKLEMHVYSKRLEIMLQDIFGEDCVSVKDDSILSVTVDGKTANLNLETRTVECEEGSEDDESLREMVELAAQRLYEALTPVH
B1: in test [1], the binding entry was “binds”.

B2: CPSF160, endogenous (protein, UniProt Q10570 1-1443)
chain: MYAVYKQAHPPTGLEFSMYCNFFNNSERNLVVAGTSQLYVYRLNRDAEALTKNDRSTEGKAHREKLELAASFSFFGNVMSMASVQLAGAKRDALLLSFKDAKLSVVEYDPGTHDLKTLSLHYFEEPELRDGFVQNVHTPRVRVDPDGRCAAMLVYGTRLVVLPFRRESLAEEHEGLVGEGQRSSFLPSYIIDVRALDEKLLNIIDLQFLHGYYEPTLLILFEPNQTWPGRVAVRQDTCSIVAISLNITQKVHPVIWSLTSLPFDCTQALAVPKPIGGVVVFAVNSLLYLNQSVPPYGVALNSLTTGTTAFPLRTQEGVRITLDCAQATFISYDKMVISLKGGEIYVLTLITDGMRSVRAFHFDKAAASVLTTSMVTMEPGYLFLGSRLGNSLLLKYTEKLQEPPASAVREAADKEEPPSKKKRVDATAGWSAAGKSVPQDEVDEIEVYGSEAQSGTQLATYSFEVCDSILNIGPCANAAVGEPAFLSEEFQNSPEPDLEIVVCSGHGKNGALSVLQKSIRPQVVTTFELPGCYDMWTVIAPVRKEEEDNPKGEGTEQEPSTTPEADDDGRRHGFLILSREDSTMILQTGQEIMELDTSGFATQGPTVFAGNIGDNRYIVQVSPLGIRLLEGVNQLHFIPVDLGAPIVQCAVADPYVVIMSAEGHVTMFLLKSDSYGGRHHRLALHKPPLHHQSKVITLCLYRDLSGMFTTESRLGGARDELGGRSGPEAEGLGSETSPTVDDEEEMLYGDSGSLFSPSKEEARRSSQPPADRDPAPFRAEPTHWCLLVRENGTMEIYQLPDWRLVFLVKNFPVGQRVLVDSSFGQPTTQGEARREEATRQGELPLVKEVLLVALGSRQSRPYLLVHVDQELLIYEAFPHDSQLGQGNLKVRFKKVPHNINFREKKPKPSKKKAEGGGAEEGAGARGRVARFRYFEDIYGYSGVFICGPSPHWLLVTGRGALRLHPMAIDGPVDSFAPFHNVNCPRGFLYFNRQGELRISVLPAYLSYDAPWPVRKIPLRCTAHYVAYHVESKVYAVATSTNTPCARIPRMTGEEKEFETIERDERYIHPQQEAFSIQLISPVSWEAIPNARIELQEWEHVTCMKTVSLRSEETVSGLKGYVAAGTCLMQGEEVTCRGRILIMDVIEVVPEPGQPLTKNKFKVLYEKEQKGPVTALCHCNGHLVSAIGQKIFLWSLRASELTGMAFIDTQLYIHQMISVKNFILAADVMKSISLLRYQEESKTLSLVSRDAKPLEVYSVDFMVDNAQLGFLVSDRDRNLMVYMYLPEAKESFGGMRLLRRADFHVGAHVNTFWRTPCRGATEGLSKKSVVWENKHITWFATLDGGIGLLLPMQEKTYRRLLMLQNALTTMLPHHAGLNPRAFRMLHVDRRTLQNAVRNVLDGELLNRYLYLSTMERSELAKKIGTTPDIILDDLLETDRVTAHF
Take B2: the binding entry in test [1] was “binds”.

B3: Symplekin, endogenous (protein, UniProt Q92797 1-1274)
chain: MASGSGDSVTRRSVASQFFTQEEGPGIDGMTTSERVVDLLNQAALITNDSKITVLKQVQELIINKDPTLLDNFLDEIIAFQADKSIEVRKFVIGFIEEACKRDIELLLKLIANLNMLLRDENVNVVKKAILTMTQLYKVALQWMVKSRVISELQEACWDMVSAMAGDIILLLDSDNDGIRTHAIKFVEGLIVTLSPRMADSEIPRRQEHDISLDRIPRDHPYIQYNVLWEEGKAALEQLLKFMVHPAISSINLTTALGSLANIARQRPMFMSEVIQAYETLHANLPPTLAKSQVSSVRKNLKLHLLSVLKHPASLEFQAQITTLLVDLGTPQAEIARNMPSSKDTRKRPRDDSDSTLKKMKLEPNLGEDDEDKDLEPGPSGTSKASAQISGQSDTDITAEFLQPLLTPDNVANLVLISMVYLPEAMPASFQAIYTPVESAGTEAQIKHLARLMATQMTAAGLGPGVEQTKQCKEEPKEEKVVKTESVLIKRRLSAQGQAISVVGSLSSMSPLEEEAPQAKRRPEPIIPVTQPRLAGAGGRKKIFRLSDVLKPLTDAQVEAMKLGAVKRILRAEKAVACSGAAQVRIKILASLVTQFNSGLKAEVLSFILEDVRARLDLAFAWLYQEYNAYLAAGASGSLDKYEDCLIRLLSGLQEKPDQKDGIFTKVVLEAPLITESALEVVRKYCEDESRTYLGMSTLRDLIFKRPSRQFQYLHVLLDLSSHEKDKVRSQALLFIKRMYEKEQLREYVEKFALNYLQLLVHPNPPSVLFGADKDTEVAAPWTEETVKQCLYLYLALLPQNHKLIHELAAVYTEAIADIKRTVLRVIEQPIRGMGMNSPELLLLVENCPKGAETLVTRCLHSLTDKVPPSPELVKRVRDLYHKRLPDVRFLIPVLNGLEKKEVIQALPKLIKLNPIVVKEVFNRLLGTQHGEGNSALSPLNPGELLIALHNIDSVKCDMKSIIKATNLCFAERNVYTSEVLAVVMQQLMEQSPLPMLLMRTVIQSLTMYPRLGGFVMNILSRLIMKQVWKYPKVWEGFIKCCQRTKPQSFQVILQLPPQQLGAVFDKCPELREPLLAHVRSFTPHQQAHIPNSIMTILEASGKQEPEAKEAPAGPLEEDDLEPLTLAPAPAPRPPQDLIGLRLAQEKALKRQLEEEQKLKPGGVGAPSSSSPSPSPSARPGPPPSEEAMDFREEGPECETPGIFISMDDDSGLTEAALLDSSLEGPLPKETAAGGLTLKEERSPQTLAPVGEDAMKTPSPAAEDAREPEAKGNS
B3: the binding result in test [2] was “no binding”.

B4: Fip1, endogenous (protein, UniProt Q6UN15 1-594)
chain: MSAGEVERLVSELSGGTGGDEEEEWLYGGPWDVHVHSDLAKDLDENEVERPEEENASANPPSGIEDETAENGVPKPKVTETEDDSDSDSDDDEDDVHVTIGDIKTGAPQYGSYGTAPVNLNIKTGGRVYGTTGTKVKGVDLDAPGSINGVPLLEVDLDSFEDKPWRKPGADLSDYFNYGFNEDTWKAYCEKQKRIRMGLEVIPVTSTTNKITAEDCTMEVTPGAEIQDGRFNLFKVQQGRTGNSEKETALPSTKAEFTSPPSLFKTGLPPSRNSTSSQSQTSTASRKANSSVGKWQDRYGRAESPDLRRLPGAIDVIGQTITISRVEGRRRANENSNIQVLSERSATEVDNNFSKPPPFFPPGAPPTHLPPPPFLPPPPTVSTAPPLIPPPGFPPPPGAPPPSLIPTIESGHSSGYDSRSARAFPYGNVAFPHLPGSAPSWPSLVDTSKQWDYYARREKDRDRERDRDRERDRDRDRERERTRERERERDHSPTPSVFNSDEERYRYREYAERGYERHRASREKEERHRERRHREKEETRHKSSRSNSRRRHESEEGDSHRRHKHKKSKRSKEGKEAGSEPAPEQESTEATPAE
Take B4: the binding entry in test [1] is listed as “binds”.

(Values after publication PMC6962326.)
